# The whole screen tested about 580,000 compounds, of which about 6,100 (1.1%) were called active. The shares of active, inactive and inconclusive entries below differ from those in the screen. Calls come from the whole dose curve; as a rule, active = well fitted inhibition curve with a large enough effect; inconclusive = small, poorly fitted or top-dose-only effect, or another doubt; inactive = no such curve, though single readings can be large or run the other way. Potencies beside an inconclusive call are fits to weak or partial responses and may not hold up.
# The chains behind the UniProt entries cited, without tags or fusion partners. Where a name states a change or a piece, a line headed by the entry shows the natural chain unless it says otherwise.
# UniProt P18054: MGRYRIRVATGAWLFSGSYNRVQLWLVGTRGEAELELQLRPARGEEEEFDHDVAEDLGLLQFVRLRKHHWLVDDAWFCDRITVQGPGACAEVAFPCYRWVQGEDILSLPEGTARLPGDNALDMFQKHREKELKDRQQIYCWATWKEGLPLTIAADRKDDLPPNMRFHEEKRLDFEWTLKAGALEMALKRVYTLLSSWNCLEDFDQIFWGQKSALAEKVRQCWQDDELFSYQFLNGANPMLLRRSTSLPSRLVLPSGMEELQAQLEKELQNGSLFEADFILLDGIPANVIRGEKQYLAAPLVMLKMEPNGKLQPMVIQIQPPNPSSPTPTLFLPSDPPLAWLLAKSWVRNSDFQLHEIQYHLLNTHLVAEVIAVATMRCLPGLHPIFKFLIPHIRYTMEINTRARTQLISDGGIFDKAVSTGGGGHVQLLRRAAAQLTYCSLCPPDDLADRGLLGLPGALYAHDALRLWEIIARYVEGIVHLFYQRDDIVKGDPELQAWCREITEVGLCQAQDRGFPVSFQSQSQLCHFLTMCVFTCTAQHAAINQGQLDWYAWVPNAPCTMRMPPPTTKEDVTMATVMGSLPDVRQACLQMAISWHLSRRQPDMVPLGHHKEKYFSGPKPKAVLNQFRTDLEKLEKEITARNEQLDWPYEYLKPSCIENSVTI
# Target: Polyunsaturated fatty acid lipoxygenase ALOX12 (Homo sapiens) (UniProt P18054)
# Assay: Primary qHTS assay for inhibitors of human arachidonate 12S-lipoxygenase (ALOX12): Round 2
# Conditions: purified 12hLO, xylenol orange hydroperoxide absorbance; activity change, negative = inhibition: at 108 µM (top of the series) unless noted
# How it was run: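 Purified human 12hLO at 150 nM in 25 mM Hepes, 0.01% Triton X-100, pH 7.0, preincubated 15 min at room temperature with compound. Reaction started with 40 uM arachidonic acid, 30 min at room temperature. Hydroperoxide measured by Fe-xylenol orange, 573/405 nm absorbance ratio.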
# % is set by controls: 0 for no effect and ±100 for the full control effect; potency is the fitted concentration of half-maximal effect.
Compound,Potency,"activity change, negative = inhibition"
COc1oc(=O)c2cc(N)ccc2c1Cl,"inconclusive: 22.4 µM [inhibitor, single point]",
Cc1cnc(C(=O)OCc2ccc(-c3ccccc3)cc2)cn1,"inconclusive: 8.91 µM [inhibitor, full curve]",
COc1cccc(C(=O)COc2ccc(F)cc2Cl)c1,inactive,
CCOC(=O)/C=C1\SCC(=O)N1Cc1nnc(-c2ccccc2Br)o1,inactive,
COc1ccc(-c2nc(=S)[nH][nH]2)cc1OC,"inconclusive: 44.7 µM [inhibitor, partial curve]",
COc1cc([N+](=O)[O-])ccc1NC(=S)Nc1cc(C(=O)OC(C)C)cc(C(=O)OC(C)C)c1,"inconclusive: 39.8 µM [inhibitor, partial curve]",
Cc1cc(C)cc(Cn2c3ccc(NC(=O)NCCc4cccs4)cc3c(=O)n2C)c1,"inconclusive: 39.8 µM [inhibitor, partial curve, poor fit]",
COc1ccc(N2CSC3=C(C#N)C(c4cccc(OC)c4OC)CC(=O)N3C2)cc1 (stereo unspecified),active: 11.2 µM,
Cc1ccc(Cl)cc1N1CCN(Cc2nc3c([nH]2)c(=O)[nH]c(=O)n3C)CC1,inactive,
O=S(=O)(c1ccc(NC(=S)NN=Cc2ccccc2O)cc1)N1CCCCC1,"inconclusive: 28.2 µM [inhibitor, partial curve, poor fit]",
Cc1c(Cc2ccccc2)c(=O)oc2c(CN(C)C)c(O)c(Cl)cc12,inactive,
COCCN(CCOC)CCOc1cccc(C#N)c1,"inconclusive: 35.5 µM [inhibitor, single point]",
COc1ccc(Nc2nc3c(S(=O)(=O)c4ccccc4)nnn3c3ccc(Cl)cc23)cc1,"inconclusive: 126 µM [inhibitor, single point]",
O=C(Cc1ccccc1)NCC(=O)OCC(=O)c1ccc(F)cc1,"inconclusive: 0.316 µM [inhibitor, full curve, poor fit]",
COc1ccc(-c2ccc(SCC(=O)c3cccs3)nn2)cc1,inactive,
COc1cc2c(cc1OC)CN(c1ccc(F)cc1[N+](=O)[O-])CC2,"inconclusive: 44.7 µM [inhibitor, partial curve, poor fit]",
CC(C)C[C@@H](CN1CCCC1CN1C(=S)NC[C@@H]1Cc1ccccc1)N1C[C@H](Cc2ccc(O)cc2)N(CCc2ccccc2)C1=S (stereo partly specified),"inconclusive: 44.7 µM [inhibitor, partial curve, poor fit]",
C[C@H](CO)N1C[C@H](C)[C@@H](CN(C)Cc2ccccc2)Oc2c(NS(=O)(=O)c3cn(C)cn3)cccc2C1=O,"inconclusive: 39.8 µM [inhibitor, partial curve, poor fit]",
COc1cc(/C=C(/C#N)c2nc(-c3cc4ccccc4oc3=O)cs2)ccc1O,"inconclusive: 28.2 µM [inhibitor, partial curve, poor fit]",
Cc1ccc(-c2[nH]nc3c2C(c2ccsc2)C(C#N)=C(N)O3)cc1 (stereo unspecified),"inconclusive: 112 µM [inhibitor, single point]",
Cc1ccccc1S(=O)(=O)N[C@H]1CC[C@@]23CCCN2C(=O)CCC[C@H]3[C@H]1Cc1ccccc1,inactive,

# A few values from above:
# Potency with Cc1cc(C)cc(Cn2c3ccc(NC(=O)NCCc4cccs4)cc3c(=O)n2C)c1 is entered as inconclusive: 39.8 µM [inhibitor, partial curve, poor fit]
# Potency with CCOC(=O)/C=C1\SCC(=O)N1Cc1nnc(-c2ccccc2Br)o1 is entered as inactive

# Further entries follow.

Compound,Potency,"activity change, negative = inhibition"
Oc1ccc(N=Nc2n[nH]c(-c3ccc(Cl)cc3)n2)cc1,"inconclusive: 35.5 µM [inhibitor, partial curve, poor fit]",
O=C1NC(=Nc2ccccc2Cl)S/C1=C\c1cc([N+](=O)[O-])ccc1O,active: 31.6 µM,
CC(C)c1ccc(NC(=O)C2CC2c2ccccc2)cc1 (stereo unspecified),"inconclusive: 39.8 µM [inhibitor, partial curve, poor fit]",
Cc1nccn1C1(C(=O)O)CCN(Cc2ccccc2F)CC1,"inconclusive: 14.1 µM [inhibitor, partial curve]",
CN1CC(=O)N(C2CCCNC2)Cc2c(NCCc3ccccn3)ncnc21 (stereo unspecified),"inconclusive: 2.24 µM [inhibitor, full curve, poor fit]",
Cc1c(Cl)cccc1NC(=O)Nc1c[nH]c(=O)[nH]c1=O,"inconclusive: 141 µM [inhibitor, partial curve, poor fit]",
Cc1cc(C(=O)CN2CCN(Cc3ccc4c(c3)CCO4)CC2)c(C)n1C1CCS(=O)(=O)C1 (stereo unspecified),"inconclusive: 0.794 µM [inhibitor, full curve, poor fit]",
COc1cc(NC(=S)NCCC(c2ccccc2)c2ccccc2)c(OC)cc1Cl,active: 39.8 µM,
O=C(NCc1ccccc1S(=O)(=O)N1CCOCC1)c1ccc(OC(F)F)cc1,inactive,
O=C(Cc1ccc(F)cc1)c1ccc(O)cc1O,"inconclusive: 28.2 µM [inhibitor, full curve, poor fit]",
COc1ccc(Cl)cc1NC(=O)CN(C)C(=O)Cn1cnnn1,"inconclusive: 89.1 µM [inhibitor, partial curve, poor fit]",
CCOc1ccc(NC(=O)c2cccc(-n3cccc3)c2)cc1S(=O)(=O)N1CCOCC1,"inconclusive: 39.8 µM [inhibitor, partial curve, poor fit]",
Cc1ccc(/C=C/C(=O)c2ccccc(=O)c2O)cc1C,active: 44.7 µM,
CC(C)(C)C(=O)NC1CCCc2ccccc21 (stereo unspecified),inactive,
O=C1NCc2ccccc2CC12CCCN2Cc1ccccc1Cl (stereo unspecified),,inactive: -2.97% [at 6.33 µM]
COc1ccc(Br)cc1CN(C)C(=O)C1CC(=O)N(C2CCCC2)C1 (stereo unspecified),"inconclusive: 50.1 µM [inhibitor, single point]",
COc1cc(OC)cc(C(=O)Nc2nc(-c3nnn(-c4ccc(C)cc4)c3C)ns2)c1,"inconclusive: 100 µM [inhibitor, single point]",
NC(=O)Cn1cnc2c(oc3nc(C4CCCCC4)c4c(c32)CCC4)c1=O,inactive,
O=C(NCC(c1ccco1)N1CCCC1)c1cccc(S(=O)(=O)Nc2ccc(F)cc2)c1 (stereo unspecified),"inconclusive: 44.7 µM [inhibitor, partial curve, poor fit]",
CC(Sc1nc(CN2CCOCC2)nc2ccccc12)c1ccccc1Cl (stereo unspecified),"inconclusive: 50.1 µM [inhibitor, partial curve, poor fit]",

# From PubChem BioAssay AID1671190 (National Center for Advancing Translational Sciences (NCATS), 2021)
